The record followed here is paper PMC3657149, “Mig6 Is a Sensor of EGF Receptor Inactivation that Directly Activates c-Abl to Induce Apoptosis during Epithelial Homeostasis” (Developmental Cell, 2012).

By UniProt entry, the sequences of proteins in these tests, tags left out. Where a name states a change or a piece, a line headed by the entry shows the natural chain unless it says otherwise.
UniProt P00519: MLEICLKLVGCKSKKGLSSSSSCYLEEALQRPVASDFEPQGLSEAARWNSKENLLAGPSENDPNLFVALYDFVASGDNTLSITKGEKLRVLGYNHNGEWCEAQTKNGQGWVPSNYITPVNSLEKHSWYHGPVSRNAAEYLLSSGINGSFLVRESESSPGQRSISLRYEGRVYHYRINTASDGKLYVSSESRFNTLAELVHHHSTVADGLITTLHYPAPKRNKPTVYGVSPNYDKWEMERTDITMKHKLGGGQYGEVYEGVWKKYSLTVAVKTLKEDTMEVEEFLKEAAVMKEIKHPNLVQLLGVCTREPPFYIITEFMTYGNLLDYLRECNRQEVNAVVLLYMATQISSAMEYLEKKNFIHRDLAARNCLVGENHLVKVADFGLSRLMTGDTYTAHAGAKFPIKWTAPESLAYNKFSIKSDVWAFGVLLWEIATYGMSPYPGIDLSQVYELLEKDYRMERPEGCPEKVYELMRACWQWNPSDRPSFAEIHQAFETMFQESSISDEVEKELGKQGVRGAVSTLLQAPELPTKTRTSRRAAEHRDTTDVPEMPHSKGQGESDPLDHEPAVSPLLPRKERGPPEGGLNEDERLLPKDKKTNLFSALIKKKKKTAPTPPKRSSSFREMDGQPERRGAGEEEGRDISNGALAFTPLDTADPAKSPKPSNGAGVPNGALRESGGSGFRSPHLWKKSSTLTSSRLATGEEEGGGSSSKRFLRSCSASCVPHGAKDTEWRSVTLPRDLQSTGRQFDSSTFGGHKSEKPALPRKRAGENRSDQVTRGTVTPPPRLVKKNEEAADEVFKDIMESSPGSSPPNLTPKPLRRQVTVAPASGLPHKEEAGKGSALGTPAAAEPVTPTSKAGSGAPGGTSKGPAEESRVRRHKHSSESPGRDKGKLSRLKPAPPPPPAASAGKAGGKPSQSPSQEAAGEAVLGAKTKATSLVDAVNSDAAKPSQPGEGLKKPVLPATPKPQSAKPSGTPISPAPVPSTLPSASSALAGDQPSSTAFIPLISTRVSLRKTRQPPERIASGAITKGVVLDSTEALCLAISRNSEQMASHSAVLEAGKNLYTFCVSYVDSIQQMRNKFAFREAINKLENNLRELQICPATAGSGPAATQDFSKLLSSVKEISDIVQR

Results are given in words; binding and its absence hold for the method and conditions named. In cells and extracts the contact can be indirect. Binding can be weak; no strength is given.

In one experiment the target is c-Abl, kinase-dead (KD) (UniProt P00519). Description: co-IP; Mig6 forms and c-Abl forms ectopically coexpressed (HEK293T where named); c-Abl or Mig6 immunopurified, immunoblotting. On the technique in general: Immunoblotting shows a protein as a band on a membrane.
Experiment [1] concerns the target inactive (kinase-dead) c-Abl kinase domain. The description is as above.

On to “Mig6, wild type, ectopically expressed (from UniProt Q9UJM3 1-462)”, for which the binding entry with c-Abl, kinase-dead (KD) is “binds”.

B1: Mig6 Y394/5F (protein, UniProt Q9UJM3 1-462)
chain: MSIAGVAAQEIRVPLKTGFLHNGRAMGNMRKTYWSSRSEFKNNFLNIDPITMAYSLNSSAQERLIPLGHASKSAPMNGHCFAENGPSQKSSLPPLLIPPSENLGPHEEDQVVCGFKKLTVNGVCASTPPLTPIKNSPSLFPCAPLCERGSRPLPPLPISEALSLDDTDCEVEFLTSSDTDFLLEDSTLSDFKYDVPGRRSFRGCGQINYAYFDTPAVSAADLSYVSDQNGGVPDPNPPPPQTHRRLRRSHSGPAGSFNKPAIRISNCCIHRASPNSDEDKPEVPPRVPIPPRPVKPDYRRWSAEVTSSTYSDEDRPPKVPPREPLSPSNSRTPSPKSLPSYLNGVMPPTQSFAPDPKYVSSKALQRQNSEGSASKVPCILPIIENGKKVSSTHFFLLPERPPYLDKYEKFFREAEETNGGAQIQPLPADCGISSATEKPDSKTKMDLGGHVKRKHLSYVVSP
As to B1, the binding entry in experiment [1] was “binds”.
